Assay results as given in PubChem BioAssay AID504444 (National Center for Advancing Translational Sciences (NCATS), 2011).
Among all 360,000 compounds or so, about 7,500 (2.1%) were called active. This list was built around the results that the source calls inconclusive (neither active nor inactive); the mix of calls is not that of the screen. Calls follow the shape of the dose curve; as a rule, active = well fitted inhibition curve with a large enough effect; inconclusive = small, poorly fitted or top-dose-only effect, or effect the other way; inactive = flat fitted curve, though single readings scatter. Potencies of inconclusive entries are doubtful fits and often do not repeat.

experiment: Nrf2 qHTS screen for inhibitors; conditions: A549 ARE-Fluc reporter, luciferase luminescence, 18-24 h; series mostly up to 46 µM; also: nearly all actives have a fitted effect of over 60% in size
In short: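 Reporter: ARE-Fluc in A549. Exposure: 18-24 h, 37 °C, 5% CO2, 5% FBS OPTI-MEM. Readouts: fluorescent cytotoxicity (CellTiter-Fluor), then luminescent Nrf2 signal after BugLite.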
Potency is read from the fitted curve at half-maximal effect.

Row | Compound | Potency
1 | O=C(Cc1ccccc1)OCCN1CCOCC1 | inconclusive: 1.64 µM [falling, partial curve, poor fit]
2 | COc1cc(O)cc2c1cc([N+](=O)[O-])c1c(C(=O)O)cc3c(c12)OCO3 | inactive
3 | COc1ccc(-n2c(O)c(/C=C3\C=Nc4ccc(Br)cc43)c(=O)[nH]c2=O)c(OC)c1 | inconclusive: 18.4 µM [activator, single point]
4 | O=c1c2ccccc2nc(/C=C/c2ccccc2F)n1-c1cccc(O)c1 | inactive
5 | ClCCN(CCCl)c1ccc(C=NNc2ncccn2)cc1 | inconclusive: 9.2 µM [activator, partial curve]
6 | N#CC1=C(N)Oc2c(c(=O)oc3ccccc23)C1c1cccnc1 (stereo not drawn) | inconclusive: 0.0052 µM [activator, full curve, poor fit]
7 | CCOc1ccc(NCc2cccn2-c2nnc(N3CCC(C(=O)NCC(C)c4ccccc4)CC3)s2)cc1 (stereo not drawn) | active: 14.6 µM
8 | CCc1nc(SC)ncc1C(=O)Nc1ccc(Cl)cc1C(=O)c1ccccc1 | inconclusive: 29.1 µM [activator, single point]
9 | O=S(=O)(c1ccc(F)c(F)c1F)N1CCN(c2ncnc3sccc23)CC1 | active: 13 µM
10 | CN(N=O)c1cc(O)ccc1O | inactive
11 | N#CCCn1cc(C(=O)Nc2ccc(F)cc2)c(-c2ccc([N+](=O)[O-])cc2)n1 | inconclusive: 20.6 µM [falling, single point]
12 | CCOc1ccc(-c2cc(C(=O)N3CCC4(CC3)OCCO4)c3ccccc3n2)cc1 | inconclusive: 0.291 µM [activator, full curve, poor fit]
13 | CCn1c(O)c(/C=N/NC(=O)c2ccccc2)c(=O)n(CC)c1=S | inconclusive: 29.1 µM [falling, single point]
14 | CC(C)(C)c1ccc(/C=C2\Oc3cc(OC(=O)N4CCOCC4)ccc3C2=O)cc1 | inconclusive: 29.1 µM [falling, single point]
15 | CCN(CC)c1ccc(/C=C2/C(=O)NC(=O)N(CC3CCCO3)C2=O)cc1 (stereo not drawn) | inactive
16 | CCOC(=O)C(NC(=O)C(Cc1ccc(N(CCCl)CCCl)cc1)NC(C)=O)C(C)C (stereo not drawn) | inactive
17 | O=c1c2ccc(Cl)cc2[nH]c(=S)n1-c1cccnc1 | inconclusive: 32.6 µM [falling, partial curve, poor fit]
18 | O=C(c1ccco1)C12CN3CN(CN(C3)C1)C2 | inconclusive: 0.13 µM [activator, full curve]
19 | O=c1oc2ccccc2n1CSC1=NCCS1 | inconclusive: 14.6 µM [falling, single point]
20 | CCOC(=O)[C@]12Cc3c(cc(OC)c(OC)c3OC)[C@H]1N(Cc1ccccc1)C(=O)c1ccccc12 | inconclusive: 29.1 µM [falling, single point]
21 | c1ccc(-c2nnc(SCc3nc4ccccc4[nH]3)o2)cc1 | inconclusive: 20.6 µM [falling, single point]
22 | Cn1ncnc2c(=O)n(C)c(=O)nc1-2 | active: 0.184 µM
23 | Cc1cccc(C(=O)OCc2cc3ccccc3[nH]c2=O)c1 | inconclusive: 0.0058 µM [falling, full curve, poor fit]

Arranged by count of non-hydrogen atoms (ascending): 14 of the compounds above
Row | Compound | Potency
10 | CN(N=O)c1cc(O)ccc1O | inactive
22 | Cn1ncnc2c(=O)n(C)c(=O)nc1-2 | active: 0.184 µM
18 | O=C(c1ccco1)C12CN3CN(CN(C3)C1)C2 | inconclusive: 0.13 µM [activator, full curve]
1 | O=C(Cc1ccccc1)OCCN1CCOCC1 | inconclusive: 1.64 µM [falling, partial curve, poor fit]
17 | O=c1c2ccc(Cl)cc2[nH]c(=S)n1-c1cccnc1 | inconclusive: 32.6 µM [falling, partial curve, poor fit]
23 | Cc1cccc(C(=O)OCc2cc3ccccc3[nH]c2=O)c1 | inconclusive: 0.0058 µM [falling, full curve, poor fit]
6 | N#CC1=C(N)Oc2c(c(=O)oc3ccccc23)C1c1cccnc1 (stereo not drawn) | inconclusive: 0.0052 µM [activator, full curve, poor fit]
2 | COc1cc(O)cc2c1cc([N+](=O)[O-])c1c(C(=O)O)cc3c(c12)OCO3 | inactive
15 | CCN(CC)c1ccc(/C=C2/C(=O)NC(=O)N(CC3CCCO3)C2=O)cc1 (stereo not drawn) | inactive
11 | N#CCCn1cc(C(=O)Nc2ccc(F)cc2)c(-c2ccc([N+](=O)[O-])cc2)n1 | inconclusive: 20.6 µM [falling, single point]
14 | CC(C)(C)c1ccc(/C=C2\Oc3cc(OC(=O)N4CCOCC4)ccc3C2=O)cc1 | inconclusive: 29.1 µM [falling, single point]
12 | CCOc1ccc(-c2cc(C(=O)N3CCC4(CC3)OCCO4)c3ccccc3n2)cc1 | inconclusive: 0.291 µM [activator, full curve, poor fit]
20 | CCOC(=O)[C@]12Cc3c(cc(OC)c(OC)c3OC)[C@H]1N(Cc1ccccc1)C(=O)c1ccccc12 | inconclusive: 29.1 µM [falling, single point]
7 | CCOc1ccc(NCc2cccn2-c2nnc(N3CCC(C(=O)NCC(C)c4ccccc4)CC3)s2)cc1 (stereo not drawn) | active: 14.6 µM

Arranged by SMILES length (rising): part of the list above
Row | Compound | Potency
1 | O=C(Cc1ccccc1)OCCN1CCOCC1 | inconclusive: 1.64 µM [falling, partial curve, poor fit]
22 | Cn1ncnc2c(=O)n(C)c(=O)nc1-2 | active: 0.184 µM
20 | CCOC(=O)[C@]12Cc3c(cc(OC)c(OC)c3OC)[C@H]1N(Cc1ccccc1)C(=O)c1ccccc12 | inconclusive: 29.1 µM [falling, single point]

Following part:

Row | Compound | Potency
24 | COc1cccc(C2SCC(=O)Nc3c2c(C)nn3-c2ccc(C)c(Cl)c2)c1OC (stereo not drawn) | inconclusive: 29.1 µM [activator, single point]
25 | CCC(=O)c1ccc(OCC(=O)N2CCN(CC(=O)Nc3ccccc3C(F)(F)F)CC2)cc1 | active: 16.4 µM
26 | CN(C)C1(c2nnnn2CCOC(=O)Nc2ccc(Cl)cc2)CCCCC1 | inconclusive: 32.6 µM [falling, single point]
27 | Cc1nc2ccccc2c(=O)n1-c1ccncc1 | inactive
28 | c1cc2c(cc1[C@H]1OCC3C1CO[C@@H]3c1ccc3c(c1)OCO3)OCO2 (stereo partly drawn) | inconclusive: 29.1 µM [falling, single point]
29 | O=C(NCCc1ccccc1)c1ccc(CSc2nc3cccnc3n2Cc2ccc(F)cc2)cc1 | inconclusive: 16.4 µM [falling, single point]
30 | CCOP(=S)(OCC)N1CC1 | inconclusive: 29.1 µM [activator, partial curve, poor fit]
31 | CCN(CC)c1ccc(CNCCc2ccccc2F)cc1 | inactive
32 | CC(C)N1CC=C(c2c[nH]c3ccccc23)CC1 | active: 1.64 µM
33 | CNC(=O)c1cccn(Cc2cccc(C(F)(F)F)c2)c1=O | inconclusive: 20.6 µM [falling, partial curve]
34 | COC(=O)C1=C(c2ccccc2OCc2ccccc2)C[C@@H]2CC[C@H]1N2C(=O)NCc1ccc([N+](=O)[O-])cc1 | inconclusive: 29.1 µM [falling, single point]
35 | O=c1[nH]c(=S)n(CCC2=CCCCC2)c(O)c1/C=N/Nc1ccccc1 | inactive
36 | COC(=O)C1=C(c2ccccc2OCc2ccccc2)C[C@@H]2CC[C@H]1N2C(=O)NCc1ccc(Br)cc1 | active: 20.6 µM
37 | c1csc(-c2nnc(COc3ccc4c(c3)OCO4)o2)c1 | inconclusive: 10.3 µM [activator, partial curve]
38 | C[n+]1c2ccccc2nc2ccc(NCCO)cc21 | inconclusive: 11.6 µM [falling, partial curve, poor fit]
39 | Cc1ccc(-c2nc(N3CCOCC3)s[n+]2-c2ccccc2)cc1 | inconclusive: 29.1 µM [activator, single point]
40 | C/C(=C\c1ccc(N(C)C)cc1)[N+](=O)[O-] | active: 23.1 µM
41 | CCCn1ncc(CN2CCCC(C(=O)c3cccc(OC)c3)C2)c1C (stereo not drawn) | inconclusive: 1.84 µM [activator, partial curve, poor fit]
42 | C#CCOc1ccc2c(c1)c(C(C)=O)c(C)n2Cc1ccccc1 | inconclusive: 29.1 µM [falling, single point]
43 | C[C@H]1CC[C@@H]2[C@@H](C)[C@H]3[C@H](C[C@H]4[C@@H]5CC=C6C[C@@H](O[C@@H]7O[C@H](CO)[C@H](O)[C@H](O[C@@H]8O[C@H](CO)[C@@H](O)[C@H](O)[C@H]8O)[C@H]7O[C@@H]7O[C@@H](C)[C@H](O)[C@@H](O)[C@H]7O)CC[C@]6(C)[C@H]5CC[C@]34C)N2C1 | inactive
44 | Cc1cc(C(=O)OCC(=O)Nc2ccccc2F)c(C)n1C1CC1 | inconclusive: 20.6 µM [activator, partial curve, poor fit]
45 | Cc1ccsc1C(=O)C1CCCN(Cc2cnc(N)nc2)C1 (stereo not drawn) | inactive
46 | CCn1c(O)c(C=Nc2ccc(S(N)(=O)=O)cc2)c(=O)n(CC)c1=S | inconclusive: 10.3 µM [falling, partial curve]

Row | Compound | Potency
47 | O=C(O)CC1OCC=C2CN3CCC45C6=CC(=O)C(=O)C([N+](=O)[O-])=C6NC4C1C2CC35 (stereo not drawn) | inconclusive: 18.4 µM [falling, single point]
48 | CCCCC(=O)N/N=C/c1c(O)n(-c2ccccc2)c(=O)[nH]c1=O | inactive
49 | CCCC(=O)NC(Oc1ccccc1Cl)C(Cl)(Cl)Cl (stereo not drawn) | inactive
50 | COc1ccc(/C=C/C=C2C(=O)NC(=S)NC2=O)cc1 | inconclusive: 29.1 µM [falling, single point]
51 | Cc1[nH]c2ccc(OC(=O)N3CCOCC3)cc2c1C(=O)OC(C)C | inconclusive: 18.4 µM [falling, single point]
52 | CC(C)(C)n1c(O)c(C=Nc2ccc3c(c2)CCC3)c(=O)[nH]c1=O | inactive
53 | CCc1ccc(N2C(=O)NC(=O)/C(=C/c3cccn3CCOc3ccc(C)cc3)C2=O)cc1 | inconclusive: 29.1 µM [activator, single point]
54 | Cc1ccccc1C(=O)Oc1cccc(Nc2ncnc3ccccc23)c1 | inconclusive: 9.2 µM [falling, partial curve, poor fit]
55 | COc1ccc(OCC(=O)N2CCN(CCc3ccncc3)CC2)cc1 | inconclusive: 23.1 µM [activator, partial curve, poor fit]
56 | O=C(c1cccc(Cl)c1)C1CCCN(Cc2cccc3cnccc23)C1 (stereo not drawn) | inconclusive: 20.6 µM [falling, single point]
57 | CCC(=NCCc1c[nH]c2ccccc12)c1c(O)n(C)c(=O)n(C)c1=O | active: 9.2 µM
58 | O=[N+]([O-])c1ccc2c(c1)C(c1ccccc1)=NCCN2 | inactive
59 | Fc1ccc(Cn2nnnc2CN2CCC(n3nnc4cc(C(F)(F)F)ccc43)CC2)cc1 | inconclusive: 29.1 µM [falling, single point]
60 | COc1cc(C)c(CNCCc2c[nH]c3ccccc23)cc1C | inactive
61 | CC(C)c1ccc2[nH]c(O)c(N=NC(=O)c3cccc(S(=O)(=O)Nc4ccc(Cl)cc4)c3)c2c1 | inconclusive: 29.1 µM [falling, single point]
62 | Clc1ccc(OCC#CCN2CCCC2)cc1 | inconclusive: 20.6 µM [activator, single point]
63 | COP(=O)(OC)c1nc(-c2cccc3ccccc23)oc1N1CCCCC1 | inconclusive: 10.3 µM [falling, partial curve, poor fit]
64 | CCOC(=O)c1c(NS(=O)(=O)c2ccccc2)n(CCCOC)c2nc3ccccc3nc12 | inactive
65 | COc1ccc(CCNc2nccn(-c3ccc(C)c(C)c3)c2=O)cc1OC | inconclusive: 29.1 µM [falling, single point]
66 | Cc1ccccc1-[n+]1c(-c2ccccc2)cc(-c2ccccc2)cc1-c1ccccc1 | active: 11.6 µM
67 | COC(=O)C1=CCCN(C)C1 | inconclusive: 0.164 µM [activator, full curve, poor fit]
68 | COC(=O)C1=C(c2ccc(Cl)c(C(F)(F)F)c2)C[C@@H]2CC[C@H]1N2C(=O)NCC1CC1 | inconclusive: 16.4 µM [falling, partial curve]
